Measurements reported in PubChem BioAssay AID1259254 (NCATS, 2017)
Here is a random part of about 59,000 reagents. About 1,550 of all reagents (2.6%) count as active. 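G2 share is only a proxy for re-replication; each gene was hit by three separate siRNAs, and active genes were retested.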 Reagents against one gene are numbered here. Not all columns of the deposit are shown. The record does not give: the amount of reagent.

- Test: 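Finding genes that stop cells copying their DNA twice in one cycle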 (primary screen)
- Cell system: human HCT116 colorectal cancer cells
- Reagent: single siRNA against human genes
- Time to read-out: 3 days
- Measurement: 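Nuclei stained with Hoechst and imaged; cell-cycle phase assigned by DNA content; G2 share scaled per plate, non-targeting siRNA 0%, GMNN siRNA 100%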
- Direction: G2 robust z-score: higher = more G2 cells, more excess DNA replication
- Rule for the call: 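Active siRNAs have a G2 robust z of 5 or more median absolute deviations over the median, which in these data means about 38% or higher of GMNN control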

| gene | reagent | G2 robust z-score | Call |
| --- | --- | --- | --- |
| KATNBL1 (katanin regulatory subunit B1 like 1) | 1 | 1.4 | inactive |
| KATNBL1 (katanin regulatory subunit B1 like 1) | 2 | 1.3 | inactive |
| KATNBL1 (katanin regulatory subunit B1 like 1) | 3 | 0.572 | inactive |
| CATSPER3 (cation channel sperm associated 3) | 1 | 6.45 | active |
| CATSPER3 (cation channel sperm associated 3) | 2 | 1.7 | inactive |
| CATSPER3 (cation channel sperm associated 3) | 3 | -0.632 | inactive |
| PLEKHG4 (pleckstrin homology and RhoGEF domain containing G4) | 1 | -0.136 | inactive |
| PLEKHG4 (pleckstrin homology and RhoGEF domain containing G4) | 2 | 1.38 | inactive |
| PLEKHG4 (pleckstrin homology and RhoGEF domain containing G4) | 3 | 0.836 | inactive |
| TMEM233 (transmembrane protein 233) | 1 | 0.544 | inactive |
| TMEM233 (transmembrane protein 233) | 2 | 1.97 | inactive |
| TMEM233 (transmembrane protein 233) | 3 | 0.0792 | inactive |
| CCDC51 (coiled-coil domain containing 51) | 1 | -0.796 | inactive |
| CCDC51 (coiled-coil domain containing 51) | 2 | -0.275 | inactive |
| CCDC51 (coiled-coil domain containing 51) | 3 | -0.671 | inactive |
| MROH8 (maestro heat like repeat family member 8) | 1 | 0.0206 | inactive |
| MROH8 (maestro heat like repeat family member 8) | 2 | -0.257 | inactive |
| MROH8 (maestro heat like repeat family member 8) | 3 | 5.54 | active |
| ACMSD (aminocarboxymuconate semialdehyde decarboxylase) | 1 | -0.824 | inactive |
| ACMSD (aminocarboxymuconate semialdehyde decarboxylase) | 2 | 0.099 | inactive |
| ACMSD (aminocarboxymuconate semialdehyde decarboxylase) | 3 | 2.11 | inactive |
| KLK15 (kallikrein related peptidase 15) | 1 | 0.635 | inactive |
| KLK15 (kallikrein related peptidase 15) | 2 | 0.2 | inactive |
| KLK15 (kallikrein related peptidase 15) | 3 | -0.618 | inactive |
| RABEPK (Rab9 effector protein with kelch motifs) | 1 | -0.651 | inactive |
| RABEPK (Rab9 effector protein with kelch motifs) | 2 | 0.451 | inactive |
| RABEPK (Rab9 effector protein with kelch motifs) | 3 | 0.102 | inactive |
| SIRT5 (sirtuin 5) | 1 | -1.31 | inactive |
| SIRT5 (sirtuin 5) | 2 | -0.627 | inactive |
| SIRT5 (sirtuin 5) | 3 | 4.29 | inactive |

Reagents above marked active (2):
| gene | reagent | G2 robust z-score | Call |
| --- | --- | --- | --- |
| CATSPER3 (cation channel sperm associated 3) | 1 | 6.45 | active |
| MROH8 (maestro heat like repeat family member 8) | 3 | 5.54 | active |
